Source: PubChem BioAssay AID1671190 (National Center for Advancing Translational Sciences (NCATS), 2021)
“And” between values parts separate entries of the source, which are not always exact repeats. Equal values may be shown once. Among all 580,000 compounds or so, about 6,100 (1.1%) were called active. Inconclusive means that the source gave no clear call. Such entries were picked first, then a sample of the others. Calls come from the whole dose curve; as a rule, active = well fitted inhibition curve with a large enough effect; inconclusive = small, poorly fitted or top-dose-only effect, or another doubt; inactive = no such curve, though single readings can be large or run the other way. A potency beside an inconclusive call is a rough fit, not a confirmed value.

Sequences of proteins named here, by UniProt entry; tags and fusion partners are left off. A change or cut given only in a name is not applied to a line headed by its entry.
UniProt P18054: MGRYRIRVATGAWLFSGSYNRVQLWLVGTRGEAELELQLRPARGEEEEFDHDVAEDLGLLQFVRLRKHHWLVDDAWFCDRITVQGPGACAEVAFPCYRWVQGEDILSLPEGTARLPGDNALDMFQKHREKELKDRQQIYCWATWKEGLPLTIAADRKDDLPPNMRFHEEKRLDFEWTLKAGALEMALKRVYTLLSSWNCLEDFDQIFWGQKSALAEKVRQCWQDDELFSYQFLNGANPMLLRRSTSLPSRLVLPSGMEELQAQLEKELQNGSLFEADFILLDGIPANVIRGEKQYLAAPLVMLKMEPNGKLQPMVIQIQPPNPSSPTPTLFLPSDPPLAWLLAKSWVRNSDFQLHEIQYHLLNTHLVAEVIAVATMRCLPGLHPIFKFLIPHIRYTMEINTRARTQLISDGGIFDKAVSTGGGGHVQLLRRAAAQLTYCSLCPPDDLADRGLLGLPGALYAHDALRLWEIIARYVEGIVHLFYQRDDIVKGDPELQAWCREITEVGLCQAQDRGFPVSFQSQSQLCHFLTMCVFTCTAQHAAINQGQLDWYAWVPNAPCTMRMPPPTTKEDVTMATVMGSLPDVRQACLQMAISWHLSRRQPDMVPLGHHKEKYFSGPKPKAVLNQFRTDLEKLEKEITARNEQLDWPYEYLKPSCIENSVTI

What follows are compounds tested against Polyunsaturated fatty acid lipoxygenase ALOX12 (Homo sapiens) (UniProt P18054) (assay: Primary qHTS assay for inhibitors of human arachidonate 12S-lipoxygenase (ALOX12): Round 2). Details: purified 12hLO, xylenol orange hydroperoxide absorbance; activity change, negative = inhibition: at 108 µM (top of the series) unless noted.
Outline: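 Purified human 12hLO at 150 nM in 25 mM Hepes, 0.01% Triton X-100, pH 7.0, preincubated 15 min at room temperature with compound. Reaction started with 40 uM arachidonic acid, 30 min at room temperature. Hydroperoxide measured by Fe-xylenol orange, 573/405 nm absorbance ratio.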
% is set by controls: 0 for no effect and ±100 for the full control effect; potency is the fitted concentration of half-maximal effect.

SMILES | Potency | activity change, negative = inhibition
CCOc1ccccc1C(=O)N1CCC2(CC1)NC(=O)N(c1ccccc1)N2 | inconclusive: 1.58 µM [inhibitor, full curve, poor fit] | 
Cc1ccc(NC(=O)N2CCc3c(C(=O)NCCCN4CCCC4=O)cccc32)cc1 | inactive | 
COc1ccc(-c2coc3cc(O)cc(O)c3c2=O)cc1OC | inconclusive: 112 µM [inhibitor, single point] | 
CCC(C)N=Cc1c(NCc2ccco2)nc2c(C)cccn2c1=O (stereo unspecified) | inactive | 
C[C@@H]1C(=O)O[C@H]2[C@H]1CC[C@@]1(C)Cc3sc(NS(=O)(=O)c4ccc(Cl)cc4)nc3[C@@H](C)[C@H]21 | inconclusive: 17.8 µM [inhibitor, full curve] | 
Cn1cc(C=C2C(=O)CC(C)(C)CC2=O)c2ccccc21 | inactive | 
Cc1ccc2oc(N3CCCC4(CCC(=O)N(Cc5cccnc5)C4)C3)nc2c1 (stereo unspecified) | inactive | 
CCc1ccc2nc(Nc3nc(COC)cc(=O)[nH]3)nc(C)c2c1 | inactive | 
COc1ccccc1CNCC(=O)Nc1ccc(C#N)cc1 | inconclusive: 0.501 µM [inhibitor, full curve, poor fit] | 
CC(C)n1nnc2cc(C(=O)O)ccc21 | inconclusive: 89.1 µM [inhibitor, single point] | 
COc1cc(C2NC(=O)CCC2[N+](=O)[O-])c(OC)cc1Br (stereo unspecified) | inconclusive: 1.12 µM [inhibitor, full curve, poor fit] | 
Cc1nn(-c2ccc(F)cc2)c(C)c1CN1CCCn2nc(CO)cc2C1 | inactive | 
CC(C)(C)c1ccc(C(=O)NCc2nnc(SCC(=O)NCc3ccco3)o2)cc1 | inconclusive: 44.7 µM [inhibitor, partial curve, poor fit] | 
CN1CCN(CC(=O)N2c3ccccc3Sc3ccccc32)CC1 | inconclusive: 0.562 µM [inhibitor, full curve, poor fit] | 
CCC(=O)Nc1ccc(S(=O)(=O)N2CCCCC2)cc1OC | inconclusive: 63.1 µM [inhibitor, partial curve, poor fit] | 
CC1(C)CC(N2CCCCC2)=CC(=[N+]2CCCCC2)C1 | inconclusive: 50.1 µM [inhibitor, partial curve, poor fit] | 
O=C(CN1Cc2ccccc2C1=O)Nc1ccc(S(=O)(=O)N2CCCCCC2)cc1 | inconclusive: 35.5 µM [inhibitor, single point] | 
Cn1cc(CNC(=O)c2cc(-c3ccccc3)nc3ccc(Br)cc23)cn1 | inactive | 
CCOC(=O)C(=O)/C(C#N)=C/Nc1ccccc1 | inconclusive: 35.5 µM [inhibitor, partial curve, poor fit] | 
COc1ccc2nc(NC(=O)CN3CCN(C)CC3)sc2c1 | inconclusive: 17.8 µM [inhibitor, partial curve, poor fit] | 
COCCS(=O)(=O)c1ccc(C(=O)N(C)C)cc1 | inconclusive: 63.1 µM [inhibitor, partial curve, poor fit] | 
CCn1c2ccccc2c2cc(CN3CCN(S(C)(=O)=O)CC3)ccc21 | inconclusive: 44.7 µM [inhibitor, partial curve, poor fit] | 

SMILES | Potency | activity change, negative = inhibition
CC(C)c1ccc(C(O)c2nc3ccccc3n2C)cc1 (stereo unspecified) | inconclusive: 35.5 µM [inhibitor, partial curve, poor fit] | 
COc1ccc2nc(SCC(=O)Nc3ccc4sc(C)nc4c3)c(C#N)cc2c1 | inconclusive: 56.2 µM [inhibitor, partial curve, poor fit] | 
O=C(O)CCCSc1ccc(Cl)cc1 | inactive | 
CC/C(=N/Nc1cccc(C)c1)c1cnnc(SC)n1 | active: 7.94 µM | 
Cc1ccc(C(=O)N(Cc2nnc(-c3ccc(Cl)cc3)o2)C2CC2)o1 | inconclusive: 89.1 µM [inhibitor, single point] | 
Cc1cc(-n2cccc2C=O)ccc1Br | inconclusive: 25.1 µM [inhibitor, partial curve, poor fit] | 
O=c1cc(CSc2ccc(Cl)cc2)[nH]c2[nH]n(-c3ccccc3)c(=O)c12 | active: 39.8 µM | 
N#Cc1ccc(C=Nc2ccc(OC(F)(F)C(F)F)c(N=Cc3ccc(C#N)cc3)c2)cc1 | inconclusive: 6.31 µM [inhibitor, full curve] | 
O=C(NCC(c1ccco1)N1CCc2ccccc21)C(=O)Nc1ccccc1 (stereo unspecified) | inconclusive: 31.6 µM [inhibitor, partial curve, poor fit] | 
CC(C)C[C@H]1CN([C@@H](Cc2ccccc2)CN2CCC[C@H]2CN2C(=O)C(=O)NC[C@@H]2Cc2ccc(O)cc2)C(=O)C(=O)N1CC1CCCCCC1 | inconclusive: 158 µM [inhibitor, partial curve, poor fit] | 
COCCCNc1nc2ccccc2nc1NS(=O)(=O)c1ccc(OC)cc1 | inconclusive: 25.1 µM [inhibitor, partial curve, poor fit] | 
CCCc1[nH]nc2c1C(CCC)C(C#N)=C(N)O2 (stereo unspecified) | inactive | 
COc1cc(C)c(S(=O)(=O)Nc2ccc(Nc3cc(N4CCCC4)nc(C)n3)cc2)cc1C | inconclusive: 50.1 µM [inhibitor, partial curve, poor fit] | 
O=C(NCC1CCCO1)c1cc(-c2ccccc2)nc2ccccc12 (stereo unspecified) | inconclusive: 112 µM [inhibitor, single point] | 
O=C(COC(=O)CNC(=O)c1cc(Cl)cc([N+](=O)[O-])c1)NC(=O)NCc1ccco1 | inconclusive: 44.7 µM [inhibitor, partial curve, poor fit] | 
C=CCn1c(SCC(=O)c2ccc(NS(=O)(=O)c3ccccc3)cc2)nnc1-c1cccs1 | inconclusive: 14.1 µM [inhibitor, full curve, poor fit] | 
CN(C)/N=C/c1c(O)ccc2ccccc12 | inconclusive: 56.2 µM [inhibitor, partial curve, poor fit] | 
COc1ccc(CN(C)C(=O)C(Cc2ccccc2)NC(=O)c2ccccc2)cc1F (stereo unspecified) | inconclusive: 112 µM [inhibitor, single point] | 
C=C1C(=O)OC2C1CCC(C)=C1C(=O)C3OC3(C)C12 (stereo unspecified) | inactive | 
Cn1c(=O)c2c(nc(CO)n2C)n(C)c1=O | inactive | 
CN(C)CCNC(=O)CCCNC(=O)Cn1cnc2sc3c(c2c1=O)CCCC3 | inconclusive: 3.16 µM [inhibitor, full curve] | 
Cc1cccc(NC(=O)c2ccc(C)c(S(=O)(=O)N3CCOCC3)c2)n1 | inconclusive: 56.2 µM [inhibitor, partial curve, poor fit] | 

SMILES | Potency | activity change, negative = inhibition
Cc1cccc(CC(=O)N2CCc3c(nc4cc[nH]n4c3=O)C2)c1 | inactive | 
CCCC(=O)NC(C)c1nc2ccccc2n1C (stereo unspecified) | inactive | 
O=C(N[C@@H]1CN(C(=O)Nc2ccccc2)CCC[C@H]1O)c1ccc(OCCN2CCCC2)cc1 | inactive | 
COc1ccccc1CN(Cc1cc2cc(C)cc(C)c2[nH]c1=O)Cc1nnnn1CC1CCCO1 (stereo unspecified) | inactive | 
COc1ccc2cc(C(c3nnnn3Cc3ccc(F)cc3)N3CCCCCC3)c(=O)[nH]c2c1 (stereo unspecified) | inconclusive: 28.2 µM [inhibitor, partial curve, poor fit] | 
CCCCn1c(=O)[nH]c(=O)c2c1nc(COC(=O)/C=C/c1cc(Cl)c(OC)c(OCC)c1)n2C | inconclusive: 44.7 µM [inhibitor, partial curve, poor fit] | 
CCOc1cc(N2CCOCC2)c(OCC)cc1NC(=O)c1ccc2ncsc2c1 | inconclusive: 39.8 µM [inhibitor, partial curve, poor fit] | 
CCCc1[nH]nc2c1C(C1CC=CCC1)C(C#N)=C(N)O2 (stereo unspecified) | inconclusive: 100 µM [inhibitor, partial curve, poor fit] | 
Cc1[nH]c2ccccc2c1C(=O)Cn1cc(S(=O)(=O)N2CCCC2)ccc1=O | inactive | 
Cc1ccc2c(C)cc(=S)[nH]c2c1 | inconclusive: 22.4 µM [inhibitor, partial curve] and inconclusive: 2.24 µM [inhibitor, full curve, poor fit] | 
CC(NC(=O)c1cccc2cccnc12)C1CC1 (stereo unspecified) | inactive | 
COc1ccc(-c2nc3cccc(C)n3c2NCc2ccco2)cc1OC | inconclusive: 39.8 µM [inhibitor, partial curve, poor fit] | 
COCCNc1nc(NCC2CCCCC2)c2sc(-c3ccccc3)cc2n1 | inconclusive: 39.8 µM [inhibitor, partial curve, poor fit] | 
O=C(Nc1ccnn1C1CCN(Cc2ccc(CO)o2)CC1)c1cccc(F)c1 | inconclusive: 112 µM [inhibitor, single point] | 
Cc1cc(-c2ccnc(-c3nnc(C)n3-c3ccccc3)c2)ccn1 | inconclusive: 100 µM [inhibitor, partial curve, poor fit] | 
CCOC(=O)C1=CC[C@H]2c3c(c4ccccc4n3C)C(=O)C1N2Cc1ccccc1 | inconclusive: 89.1 µM [inhibitor, single point] | 
Nc1nnnn1NCc1cc(Br)ccc1OCc1ccccc1 | inactive | 
CCCCc1ccc(NC(=O)CSC2=C(C#N)C(c3ccco3)C3=C(CCCC3=O)N2)cc1 (stereo unspecified) | inactive | 
Cc1ccc(C(=O)N2CCSC2=S)cc1 |  | inconclusive: -30.9% [inhibitor]
Cc1ccc(OCCCC(=O)Nc2cc(Cl)ccc2-n2cncn2)cc1 | inconclusive: 44.7 µM [inhibitor, partial curve, poor fit] | 
Cc1ccc(C(=O)c2c3ccccc3[n+]([O-])n2[C@@H](C)C(N)=O)cc1 | inconclusive: 50.1 µM [inhibitor, partial curve, poor fit] | 
C[C@H](O)c1onc(-c2ccc(F)cc2)c1C(=O)N1CCCCC1 | inactive | 

Entries listed so far containing a COOH group:
SMILES | Potency | activity change, negative = inhibition
CC(C)n1nnc2cc(C(=O)O)ccc21 | inconclusive: 89.1 µM [inhibitor, single point] | 
O=C(O)CCCSc1ccc(Cl)cc1 | inactive | 

Three of these compounds in another layout:
SMILES	Potency	activity change, negative = inhibition
N#Cc1ccc(C=Nc2ccc(OC(F)(F)C(F)F)c(N=Cc3ccc(C#N)cc3)c2)cc1	inconclusive: 6.31 µM [inhibitor, full curve]	
O=C(NCC(c1ccco1)N1CCc2ccccc21)C(=O)Nc1ccccc1 (stereo unspecified)	inconclusive: 31.6 µM [inhibitor, partial curve, poor fit]	
CC(C)C[C@H]1CN([C@@H](Cc2ccccc2)CN2CCC[C@H]2CN2C(=O)C(=O)NC[C@@H]2Cc2ccc(O)cc2)C(=O)C(=O)N1CC1CCCCCC1	inconclusive: 158 µM [inhibitor, partial curve, poor fit]	
